This is an account of results in patent US10006918B2, “Fluorogenic hydrazine-substituted compounds” (LIFE TECHNOLOGIES CORPORATION, priority 2008, dated 2018).

A short description of this data set: Aldehyde reactivity of compounds: fluorogenic reaction with acetaldehyde in phosphate buffer, excitation/emission spectra. The format is physicochemical. The procedure: Spectra were taken at pH 6 in a 50 mM phosphate buffer solution.
Spectra were taken at pH 6 in 50 mM phosphate buffer solution.
A sample of Compound 2 (5 mg, 0.0126 mmol) is dissolved in 10 ml of pH 6.5, 50 mmol phosphate buffer solution. To this non-fluorescent solution, is added 25 ul, 1 mol solution of acetaldehyde in water at room temperature. […] The reaction is complete in 10 minutes to give a stable […] analog. Its absorption max is at 548 nm and emission max is at 580 nm (see FIGS. 3A and B).

For `NN=c1ccc2c(-c3ccccc3S(=O)(=O)O)c3ccc(NN)cc3oc-2c1` [Compound 2, 2-(6-hydrazinyl-3-hydrazono-3H-xanthen-9-yl)benzenesulfonate], for the setting “5 mg in 10 ml pH 6.5, 50 mmol phosphate buffer”, the “fluorescence of solution before addition of acetaldehyde” value is given as “non-fluorescent”. Further, for the setting “un-reacted dye, excitation at 519 nm, FIG. 3A”, the “fluorescent emissions from excitation at 519 nm, un-reacted compound” value is “no fluorescent emissions detected”.
